Assay results: patent US20260374818A1, “CATIONIC PEPTIDES WITH BROAD SPECTRUM ACTIVITY” (priority 2023, published 2026)

Tested on: Enterococcus faecium #2-1
Assay: Biofilm inhibition (at least 80%), E. faecium
Format: cell-based
Conditions: E. faecium #2-1; n = 3; TSB + 1% glucose; 48 hours; crystal violet

O=C(O)c1cn(C2CC2)c2cc(N3CCNCC3)c(F)cc2c1=O [CIP]
Peptide/Antibiotic Concentration where at least 80% of biofilm growth was inhibited: >256 µg/mL
